These are yes or no findings as the source states them, for the method shown. Some binding calls cover weakened binding; strength is not graded here.
Target: 78 kDa glucose regulated protein (GRP78) (mouse (endogenous in cultured spinal cord astrocytes)) (UniProt P20029)
Test: DARTS (drug affinity responsive target stability); astrocyte cell lysate (10 ug protein) incubated with 0.1, 1 or 10 ug/ml recombinant NLK or vehicle for 30 min at room temperature; then thermolysin (1:10) in 50 mM Tris-HCl pH 8.0, 50 mM NaCl, 10 mM CaCl2 for 30 min at 37 C; SDS-PAGE with silver stain, band identified by nano LC-MS/MS, western blot for GRP78; only the binder purified

Amino acid sequences for entries named in this document (tags omitted). Residues count along the entry.
UniProt P20029, residues 20-655: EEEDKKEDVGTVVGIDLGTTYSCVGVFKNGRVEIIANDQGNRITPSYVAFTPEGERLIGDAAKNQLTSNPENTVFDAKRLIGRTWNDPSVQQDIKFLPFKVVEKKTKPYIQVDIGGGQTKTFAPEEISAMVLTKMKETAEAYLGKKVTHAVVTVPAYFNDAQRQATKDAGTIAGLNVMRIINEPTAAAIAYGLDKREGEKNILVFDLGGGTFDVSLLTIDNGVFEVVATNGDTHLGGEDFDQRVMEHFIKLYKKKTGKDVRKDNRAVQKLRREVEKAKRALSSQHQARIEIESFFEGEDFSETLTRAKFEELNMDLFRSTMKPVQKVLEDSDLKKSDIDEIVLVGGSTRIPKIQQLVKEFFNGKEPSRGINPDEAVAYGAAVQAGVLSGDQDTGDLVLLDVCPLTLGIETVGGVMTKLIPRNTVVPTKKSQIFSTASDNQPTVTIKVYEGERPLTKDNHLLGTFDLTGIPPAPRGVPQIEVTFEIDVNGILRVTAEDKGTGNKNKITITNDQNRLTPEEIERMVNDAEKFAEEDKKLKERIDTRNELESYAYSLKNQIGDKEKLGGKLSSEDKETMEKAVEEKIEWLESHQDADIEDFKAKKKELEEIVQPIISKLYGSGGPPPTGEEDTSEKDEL

binding: binds
Substance: recombinant neuroleukin (NLK) (from UniProt P06744 1-558) (ligand)
